According to PubChem BioAssay AID1259354 (Paczesny and Yang Labs, IUPUI and University of Michigan, 2018):
Where “and” joins values, the source holds several entries; their conditions need not be identical. Identical values can stand only once. Out of some 78,000 compounds screened, about 1,800 (2.3%) were called active. Inconclusive results, whose numbers are uncertain, are shown with a selection of clear calls. No stated cut-off is given here; in the data, active means inhibition above about 30%; inconclusive means mostly about 10% to 28%; inactive means weaker than that.

Chains of the proteins cited; added tags and fusions are not shown. Lines headed by an entry give the natural chain unless they say otherwise; changes in a name come on top.
UniProt Q01638: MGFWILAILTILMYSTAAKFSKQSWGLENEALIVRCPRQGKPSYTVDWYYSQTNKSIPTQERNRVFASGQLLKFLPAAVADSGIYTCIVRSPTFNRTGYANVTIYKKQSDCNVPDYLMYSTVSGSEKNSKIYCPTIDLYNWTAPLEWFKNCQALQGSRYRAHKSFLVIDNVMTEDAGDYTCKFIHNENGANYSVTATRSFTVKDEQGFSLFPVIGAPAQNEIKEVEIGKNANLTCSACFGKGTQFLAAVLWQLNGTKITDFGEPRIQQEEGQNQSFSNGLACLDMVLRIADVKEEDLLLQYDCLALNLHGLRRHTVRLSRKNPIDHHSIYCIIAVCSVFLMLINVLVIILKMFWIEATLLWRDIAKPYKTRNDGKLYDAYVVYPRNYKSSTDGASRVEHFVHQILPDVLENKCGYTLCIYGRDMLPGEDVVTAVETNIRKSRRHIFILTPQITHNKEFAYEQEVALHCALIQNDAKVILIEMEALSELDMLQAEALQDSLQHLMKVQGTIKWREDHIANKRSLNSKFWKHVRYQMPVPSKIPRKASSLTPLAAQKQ

What follows are compounds tested against Interleukin-1 receptor-like 1 (Homo sapiens) (UniProt Q01638) (assay: blocks human ST2 binding to IL-33, primary screen, biochemical, AlphaLISA (AID 1259354)). Conditions: AlphaLISA ST2-Fc/biotin-IL-33 interaction, 1 h; at 17 µM, stronger effect = higher value.

Row | Structure (SMILES) | inhibition
1 | CCNc1ncc(C(=O)N2CCCC(c3ccccc3)C2)cn1 (centres undefined) | inconclusive: 12%
2 | O[C@@H]1C[C@@H](c2nc(-c3ccc4c(c3)OCO4)no2)N(Cc2cccs2)C1 | inconclusive: 10%
3 | COc1ccc(Cn2c(C(C)OC)n[nH]c2=O)cc1 (centres undefined) | inconclusive: 11%
4 | Cc1ccccc1Cn1c(=O)n(CCCC(=O)NCc2ccco2)c(=O)c2sccc21 | inconclusive: 15%
5 | CCN(CC)S(=O)(=O)c1ccc(C(=O)Nc2c3c(nn2C(C)(C)C)CS(=O)C3)cc1 (centres undefined) | inactive
6 | COc1cc(C(=O)ON=C2C=C(C)C(=O)C(C)=C2)cc(OC)c1OC | inconclusive: 20%
7 | OCC1(Cc2ccccc2C(F)(F)F)CCN(c2ccc(Cl)cn2)CC1 | inactive
8 | O=C(NCc1ccc(C(F)(F)F)cc1)c1cn(CCCc2ccccc2)nn1 | inconclusive: 21%
9 | Cc1ccc(-c2cnc3ccccc3n2)cc1C | inconclusive: 13%
10 | O=c1[nH]c2ccc(N=Cc3cc([N+](=O)[O-])cc([N+](=O)[O-])c3O)cc2[nH]1 | inconclusive: 11%
11 | COc1ccc(Nc2c(-c3ccc(C)o3)nc3cc(C)ccn23)cc1 | inconclusive: 11%
12 | Cc1ccc(N(CC(=O)O)S(C)(=O)=O)cc1C | inactive
13 | COc1ccc(CC(=O)NC(C)c2ccccc2)cc1 (centres undefined) | inconclusive: 10%
14 | COc1ccc(C=Nc2ccc3[nH]c(=O)[nH]c3c2)cc1OC | inactive
15 | COc1ccc(NC(=O)CSc2nnc(NC(=O)c3ccccc3Br)s2)cc1 | inactive
16 | COc1ccc(Nc2cc(C)nc(N3CCN(S(C)(=O)=O)CC3)n2)cc1 | inconclusive: 15%
17 | O=C(Nc1cccc(NC(=O)c2ccco2)c1)c1cccc(Br)c1 | active: 53%
18 | Cc1cc2ccccc2n1CCNS(=O)(=O)c1ccc(F)cc1 | inconclusive: 16%
19 | N#CC1=C(N)c2ccccc2CC12CCCCC2 | inconclusive: 12%
20 | Cc1csc2ncc(C(=O)Nc3ccc(Br)cc3)c(=O)n12 | inconclusive: 17%
21 | COc1cc(/C=C2/C(=O)N(c3ccccc3)N=C2C)ccc1OCCOCCOc1ccccc1 | active: 45%
22 | Cc1ccc(C2CC(c3ccco3)=Nc3ccccc3S2)cc1 (centres undefined) | inconclusive: 24% and inconclusive: 12%
23 | CC(NC1CCN(C)CC1)c1ccc(-c2ccccc2)cc1 (centres undefined) | inconclusive: 13%
24 | CC(C)(C)c1cccc(OCc2nc(CC3CC3)no2)c1 | inconclusive: 13%

Row | Structure (SMILES) | inhibition
25 | N#Cc1c(N)nc(SCC(=O)c2ccc([N+](=O)[O-])cc2)c(C#N)c1Cc1ccccc1 | inconclusive: 29%
26 | O=C(c1cn(CC2CCCNC2)nn1)N1CCc2[nH]ncc2C1 (centres undefined) | inconclusive: 13%
27 | Cc1ccc(S(=O)(=O)N=C2C=CC(=O)C(Br)=C2)cc1 | inconclusive: 20%
28 | CS(=O)(=O)c1ccc2nc(NC(=O)c3ccccc3CCc3ccccc3)sc2c1 | inconclusive: 10%
29 | NC(=O)c1c(NC(=O)c2ccc(-c3ccccc3[N+](=O)[O-])o2)sc2c1CCCC2 | inconclusive: 14%
30 | COc1cc(C)nc(Oc2ccc(OCc3ccccc3)nn2)n1 | inconclusive: 15%
31 | O=C(CN1C(=O)COc2ccc(S(=O)(=O)N3CCCC3)cc21)NCc1cccs1 | inconclusive: 12%
32 | COc1cccc(-c2ncnn2-c2ccc(Cl)c(C)c2)c1OC | inconclusive: 19%
33 | O=C1OC(C(=O)Nc2cc(C(F)(F)F)ccc2Cl)Cc2ccccc21 (centres undefined) | inconclusive: 15%
34 | CO[C@H]1CN(C(C)C)C[C@@H]1Nc1ncc(C)c(N(C)C)n1 | inconclusive: 10%
35 | O=C(NCc1cccs1)c1ccc2c(c1)N(Cc1cccc(Cl)c1)C(=O)CS2 | inactive
36 | COc1ccc(CN2C(=O)C3C4C=CC(C4)C3C2=O)cc1 (centres undefined) | inconclusive: 16%
37 | COc1cc(C2C(C(N)=O)=C(C)Nc3nc(-c4ccccc4)nn32)cc(OC)c1OC (centres undefined) | inconclusive: 10%
38 | O=C(Nc1ccc(Cl)cn1)c1cc(F)c(F)cc1Cl | inactive
39 | Cc1ccc(N=Cc2nc(-c3ccc(Cl)cc3)oc2O)cc1 | inconclusive: 19%
40 | CCCCNC(=O)CSc1c2c(nc3cc(Cl)ccc13)CCCC2 | inconclusive: 27%
41 | CCn1ccnc1C(O)c1ccc(C(C)C)cc1 (centres undefined) | inconclusive: 14%
42 | COc1cc(N=Cc2c(C)[nH]n(-c3ccccc3)c2=O)c(OC)cc1Cl | inconclusive: 19%
43 | CC(=O)/C(C)=C(\NC(=O)c1ccccc1)c1ccccc1 | inconclusive: 27%
44 | COc1ccc(N=Cc2c(NCc3ccccc3)nc3c(C)cccn3c2=O)cc1 | inconclusive: 13%
45 | CCc1[nH]c2c(CNC(=O)CCN3CCCCCC3=O)cc(C)cc2c1C | inactive
46 | Cc1ccc(C#N)c(SCC(=O)c2cccc(Cl)c2)n1 | inconclusive: 12%
47 | O=C(O)c1cc(-c2cccc3ncccc23)cc(S(=O)(=O)NC2CC2)c1 | inconclusive: 16%
48 | CCC(Sc1nc2c(c(=O)n1-c1ccc(C)cc1)SCC2)C(=O)OC (centres undefined) | inconclusive: 15%

Row | Structure (SMILES) | inhibition
49 | COc1ccc(Nc2cc(C)nc(N3CCN(S(=O)(=O)c4ccc(Br)cc4)CC3)n2)cc1 | inconclusive: 26%
50 | CN1C[C@@H](NC(=O)c2ccco2)C[C@H]1c1nc(-c2cccnc2)no1 | active: 49%
51 | CN1CC2(CCCN(C(=O)CCc3ccccn3)CC2)OC1=O (centres undefined) | inconclusive: 11%
52 | CC(=O)N1CCC(C(=O)NC2CC(C)(C)Oc3cc(C)ccc32)CC1 (centres undefined) | inactive
53 | CCC(=O)Nc1sc2c(c1-c1nc3ccccc3s1)CCN(CC)C2 | inconclusive: 17%
54 | CCCn1cnc2c1CN(S(C)(=O)=O)[C@H](C(=O)OC)C2 | inconclusive: 18%
55 | CN1C(=O)C2(CCN(c3ncnc4c3CCC4)CC2)c2ccccc21 | inconclusive: 17%
56 | O=C1CCCC2=C1C(c1ccc(F)cc1)n1nc(SCc3ccccc3F)nc1N2 (centres undefined) | inconclusive: 11%
57 | CO[C@H]1CN(C(=O)c2nn(C)c3ccccc23)CC[C@H]1N | inconclusive: 11%
58 | COc1ccc(NC(=O)[C@H](C)NC(C)=O)cc1NC(=O)c1ccccc1 | inconclusive: 12%
59 | COc1cccc(OCC(O)CNC(=O)C2CCN(c3nc(C)c4ccccc4n3)CC2)c1 (centres undefined) | inconclusive: 11%
60 | Cc1cc(NS(=O)(=O)c2c(C)n[nH]c2C)ccc1Br | inactive
61 | COc1ccc(C)cc1NC(=O)CN(c1ccccc1)S(=O)(=O)c1ccccc1[N+](=O)[O-] | inconclusive: 16%
62 | C=CCOc1ccc(C=Nc2ccc(C(C)C)cc2)c(O)c1 | active: 41%
63 | COc1ccc(NC(=O)C(NS(=O)(=O)c2cccs2)C(C)C)c(OC)c1 (centres undefined) | inconclusive: 13%
64 | COc1ccc(C(=O)Nc2cc3c(C)cc(=O)oc3cc2C)o1 | inconclusive: 14%
65 | Cc1cccn2c(=O)c3cc(C(=O)NCCc4ccccc4)n(C)c3nc12 | inconclusive: 21%
66 | COc1ccc(S(=O)(=O)Nc2ccccc2F)cc1OC | inactive
67 | O=C(NCc1ccc(C(=O)N2CCCCC2)cc1)C1CC2(CCNCC2)CN1 (centres undefined) | inconclusive: 26%
68 | CCc1[nH]c2ccc(CNc3cc(COC)ncn3)cc2c1C | inactive
69 | O=S(=O)(c1cccc2cccnc12)N1CCCc2ccccc21 | inconclusive: 17%
70 | O=C(Nc1cccc(F)c1)c1oc2ccccc2c1NC(=O)C1CCCC1 | inactive
71 | C=CCSc1nnc2c(n1)OC(c1ccc3c(c1)OCO3)N(C(C)=O)c1ccccc1-2 (centres undefined) | inconclusive: 16%
72 | Cc1ccc(NS(=O)(=O)c2ccc3c(c2)CCN3C(=O)C2CC2)cc1 | inconclusive: 13%

Row | Structure (SMILES) | inhibition
73 | Cc1cc(C)c(C)c(C2C(C#N)=C(N)SC(N)=C2C#N)c1C | inconclusive: 16%
74 | COc1cccc(CN2CC(C(=O)N3CCC(OCc4ccccc4)CC3)CCC2=O)c1 (centres undefined) | inconclusive: 12%
75 | COCCCN1C(=O)N(Cc2ccccc2)C(=O)C12CCN(Cc1c(F)cccc1Cl)CC2 | active: 32%
76 | C=CCOc1ccc(-c2nn(-c3ccccc3)cc2/C=c2\sc3ncnn3c2=O)cc1 | inactive
77 | O=C(/C=C1\Sc2ccccc2NC1=O)NCc1cccnc1 | inactive
78 | CCCCOC(=O)Nc1ccc([N+](=O)[O-])cc1OC | inconclusive: 27%
79 | COc1ccc(-c2ccc(C3NCCc4[nH]cnc43)cc2)c2ccc(C)nc12 (centres undefined) | inactive
80 | CC(C)(C)S(=O)(=O)c1ccc(NCCc2ccc(S(N)(=O)=O)cc2)nn1 | inactive
81 | CCN1CC(NC(=O)CNS(=O)(=O)c2ccc(F)cc2C)CC1=O (centres undefined) | inconclusive: 18%
82 | Cn1c(=O)[nH]c(=O)c2c1nc(N1CCCCC1)n2CCC#N | inconclusive: 14%
83 | Cc1cc(CC(C)NC(=O)c2c(Cl)cnn2C)n[nH]1 (centres undefined) | inactive
84 | CCOC(=O)C1(CCOc2ccccc2)CCCN(C(=O)Cn2cccn2)C1 (centres undefined) | inconclusive: 14%
85 | COc1ccccc1/C=C1/SC(N2CCCC2)=NC1=O | inconclusive: 16%
86 | CCc1ccn2c(C)c(-c3ccc(OC)c(OC)c3)cc2c1 | inconclusive: 17%
87 | O=C(c1cc2cc3ccc(Cl)cc3nc2o1)N1CCN(c2ccccn2)CC1 | inconclusive: 19%
88 | Cc1ccc(NC(=O)c2cc([N+](=O)[O-])ccc2N2CCN(C)CC2)cc1Cl | inconclusive: 11%
89 | CCn1c(-c2ccc3c(c2)CCO3)nc2cc(C(=O)OC)cnc21 | inconclusive: 27%
90 | N#Cc1cccc(NC(=O)O[C@@H]2CO[C@H]3[C@@H]2OC[C@@H]3Nc2nccc(-c3cccs3)n2)c1 | inactive
91 | Cc1nc(C(=O)N(C)Cc2snnc2C)c(C)o1 | inactive
92 | O=C(c1ccccc1Br)N1CCN=C1SCc1ccc([N+](=O)[O-])cc1 | inconclusive: 22%
93 | COc1ccc2cc(C(=O)Nc3ccccc3C)c(=O)oc2c1 | inconclusive: 14%
94 | CC(C)Oc1ccc(C(=O)N(c2ccc(F)cc2)C2C=CS(=O)(=O)C2)cc1 (centres undefined) | inactive
